Data: publication doi:10.1101/032243
These are yes or no findings as the source states them, for the method shown. In cells and extracts the contact can be indirect. Some entries that bind do so weakly or less than the wild type. For some of these results: Where a sequence is shown, tags or fusion partners need not be part of it.

Columns and labels:
Experiment in all cases: co-IP
[1] = molecular target: T1, DISC1 (as used in the co-IP of Fig. S3D) (UniProt Q811T9)
T1 sequence: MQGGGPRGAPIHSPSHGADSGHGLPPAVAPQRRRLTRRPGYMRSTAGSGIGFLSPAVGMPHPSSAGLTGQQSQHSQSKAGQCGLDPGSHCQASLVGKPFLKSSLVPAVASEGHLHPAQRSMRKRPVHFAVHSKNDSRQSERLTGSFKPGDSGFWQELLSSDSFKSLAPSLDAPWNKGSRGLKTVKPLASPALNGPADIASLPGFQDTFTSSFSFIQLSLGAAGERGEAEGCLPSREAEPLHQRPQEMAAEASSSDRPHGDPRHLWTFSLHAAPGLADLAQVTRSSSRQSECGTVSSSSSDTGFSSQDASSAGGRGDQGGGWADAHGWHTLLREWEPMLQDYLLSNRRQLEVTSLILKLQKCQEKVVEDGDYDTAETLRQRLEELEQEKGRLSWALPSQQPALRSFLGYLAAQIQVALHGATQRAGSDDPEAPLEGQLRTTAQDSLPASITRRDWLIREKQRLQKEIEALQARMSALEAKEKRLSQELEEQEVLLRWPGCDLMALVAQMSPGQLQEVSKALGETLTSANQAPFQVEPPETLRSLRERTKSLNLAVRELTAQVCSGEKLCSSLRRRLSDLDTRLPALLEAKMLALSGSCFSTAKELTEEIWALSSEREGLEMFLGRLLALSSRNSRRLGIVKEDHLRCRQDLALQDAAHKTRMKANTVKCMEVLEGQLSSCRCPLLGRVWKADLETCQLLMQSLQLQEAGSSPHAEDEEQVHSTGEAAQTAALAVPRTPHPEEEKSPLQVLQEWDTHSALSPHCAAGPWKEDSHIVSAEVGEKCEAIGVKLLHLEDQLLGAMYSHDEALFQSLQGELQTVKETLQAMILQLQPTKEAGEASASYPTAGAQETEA

[2] = molecular target: Flag-tagged DISC1 CT region (residues 634-852) (mouse) (UniProt Q811T9)
[3] = molecular target: T2, full-length Flag-tagged DISC1 (mouse) (UniProt Q811T9)
T2 sequence: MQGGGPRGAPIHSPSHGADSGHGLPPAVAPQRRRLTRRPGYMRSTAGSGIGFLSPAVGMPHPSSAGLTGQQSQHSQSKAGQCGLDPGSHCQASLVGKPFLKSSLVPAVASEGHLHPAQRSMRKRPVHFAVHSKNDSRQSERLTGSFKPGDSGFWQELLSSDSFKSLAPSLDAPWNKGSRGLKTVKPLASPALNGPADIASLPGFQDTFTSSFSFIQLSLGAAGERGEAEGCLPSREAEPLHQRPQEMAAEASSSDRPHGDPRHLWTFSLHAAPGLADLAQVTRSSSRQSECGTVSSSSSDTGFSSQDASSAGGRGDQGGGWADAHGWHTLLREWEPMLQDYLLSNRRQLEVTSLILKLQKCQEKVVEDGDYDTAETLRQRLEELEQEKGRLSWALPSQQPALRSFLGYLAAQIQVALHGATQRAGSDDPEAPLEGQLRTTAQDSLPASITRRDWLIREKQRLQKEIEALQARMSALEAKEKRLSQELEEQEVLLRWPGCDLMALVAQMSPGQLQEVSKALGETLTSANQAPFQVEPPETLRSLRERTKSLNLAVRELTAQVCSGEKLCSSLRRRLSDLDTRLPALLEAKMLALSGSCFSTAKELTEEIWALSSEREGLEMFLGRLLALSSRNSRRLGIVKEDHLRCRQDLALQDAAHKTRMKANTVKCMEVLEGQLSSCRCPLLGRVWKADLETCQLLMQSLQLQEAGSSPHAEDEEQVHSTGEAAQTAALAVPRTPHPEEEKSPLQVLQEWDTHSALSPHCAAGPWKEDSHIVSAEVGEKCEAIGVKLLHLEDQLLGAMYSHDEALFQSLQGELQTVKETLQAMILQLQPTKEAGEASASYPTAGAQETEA

[4] = molecular target: T3, full-length Flag-tagged RASSF7 (UniProt Q9DD19)
T3 sequence: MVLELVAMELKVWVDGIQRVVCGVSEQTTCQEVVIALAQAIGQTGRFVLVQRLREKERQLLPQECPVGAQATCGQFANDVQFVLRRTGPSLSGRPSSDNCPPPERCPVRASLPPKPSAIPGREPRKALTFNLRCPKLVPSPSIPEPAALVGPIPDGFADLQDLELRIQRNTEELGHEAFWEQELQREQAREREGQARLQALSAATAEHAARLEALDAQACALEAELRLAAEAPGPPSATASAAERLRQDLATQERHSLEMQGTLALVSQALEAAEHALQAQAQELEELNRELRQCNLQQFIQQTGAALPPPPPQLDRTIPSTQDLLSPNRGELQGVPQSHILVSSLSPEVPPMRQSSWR

Molecule: c-RAF (from UniProt Q99N57 1-648)
- binding [1]: no binding

B1: full-length HA-tagged RASSF7 (protein, UniProt Q9DD19 1-359)
chain: MVLELVAMELKVWVDGIQRVVCGVSEQTTCQEVVIALAQAIGQTGRFVLVQRLREKERQLLPQECPVGAQATCGQFANDVQFVLRRTGPSLSGRPSSDNCPPPERCPVRASLPPKPSAIPGREPRKALTFNLRCPKLVPSPSIPEPAALVGPIPDGFADLQDLELRIQRNTEELGHEAFWEQELQREQAREREGQARLQALSAATAEHAARLEALDAQACALEAELRLAAEAPGPPSATASAAERLRQDLATQERHSLEMQGTLALVSQALEAAEHALQAQAQELEELNRELRQCNLQQFIQQTGAALPPPPPQLDRTIPSTQDLLSPNRGELQGVPQSHILVSSLSPEVPPMRQSSWR
- binding [2]: binds
- binding [3]: binds

B2: full-length HA-tagged mDISC1 (protein, UniProt Q811T9 1-852)
chain: MQGGGPRGAPIHSPSHGADSGHGLPPAVAPQRRRLTRRPGYMRSTAGSGIGFLSPAVGMPHPSSAGLTGQQSQHSQSKAGQCGLDPGSHCQASLVGKPFLKSSLVPAVASEGHLHPAQRSMRKRPVHFAVHSKNDSRQSERLTGSFKPGDSGFWQELLSSDSFKSLAPSLDAPWNKGSRGLKTVKPLASPALNGPADIASLPGFQDTFTSSFSFIQLSLGAAGERGEAEGCLPSREAEPLHQRPQEMAAEASSSDRPHGDPRHLWTFSLHAAPGLADLAQVTRSSSRQSECGTVSSSSSDTGFSSQDASSAGGRGDQGGGWADAHGWHTLLREWEPMLQDYLLSNRRQLEVTSLILKLQKCQEKVVEDGDYDTAETLRQRLEELEQEKGRLSWALPSQQPALRSFLGYLAAQIQVALHGATQRAGSDDPEAPLEGQLRTTAQDSLPASITRRDWLIREKQRLQKEIEALQARMSALEAKEKRLSQELEEQEVLLRWPGCDLMALVAQMSPGQLQEVSKALGETLTSANQAPFQVEPPETLRSLRERTKSLNLAVRELTAQVCSGEKLCSSLRRRLSDLDTRLPALLEAKMLALSGSCFSTAKELTEEIWALSSEREGLEMFLGRLLALSSRNSRRLGIVKEDHLRCRQDLALQDAAHKTRMKANTVKCMEVLEGQLSSCRCPLLGRVWKADLETCQLLMQSLQLQEAGSSPHAEDEEQVHSTGEAAQTAALAVPRTPHPEEEKSPLQVLQEWDTHSALSPHCAAGPWKEDSHIVSAEVGEKCEAIGVKLLHLEDQLLGAMYSHDEALFQSLQGELQTVKETLQAMILQLQPTKEAGEASASYPTAGAQETEA
- binding [4]: binds
